Reference: PubChem BioAssay AID1053208 (Peter MacCallum Cancer Centre, 2014)
Purpose: 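Find knock-downs that sensitise mouse osteosarcoma cells to doxorubicin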 (primary screen). Cells: mouse osteosarcoma cells, early-passage culture from an engineered mouse model of fibroblastic bone tumour. Reagents: siRNA pool against mouse genes, 40 nM. Time to read-out: about 120 h (48 h before drug, then 72 h with drug). Conditions: doxorubicin 100 nM for 72 h, roughly 30-40% inhibitory dose. Measured: 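Viability read as ATP luminescence after 72 h of 100 nM doxorubicin or none, duplicate wells averaged, scaled to non-targeting siRNA, then expressed as robust z-scores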. Direction: viability z-score with doxorubicin: higher = more viable cells under doxorubicin; viability z-score without drug: higher = more viable cells with knock-down alone. Call rule: 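Called active if knock-down leaves viability unchanged without drug (z within -2 to 2) but lowers it with doxorubicin (z at or under -2)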.
The whole screen tested about 17,000 reagents; this is an unselected part. In the full data, 788 (4.7%) are marked active. 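Calls rest on z-score classes alone; an extra cut-off of viability at most 70% of control was not applied to them.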 Entries without a mark were called inactive. Further read-outs or replicates are left out here.

target gene	combined z-score class	viability z-score with doxorubicin	viability z-score without drug
Chtf8	no change with or without drug	-0.45	0.34
R74862	no change with or without drug	-1.24	-0.51
Kif2a	no change with or without drug	-0.9	1.18
Slc51b	no change with or without drug	-1.35	-0.51
Zfp51	no change with or without drug	0.22	0.84
Psmd11	low cell count with and without drug	-4.27	-4.55
Usp14	no change with or without drug	-0.22	0.34
Slc35f2	no change with or without drug	0.9	-0.51
Foxo6	no change with or without drug	0	-0.67
Dcaf12l1	no change with or without drug	0.56	-0.17
Olfml3	no change with or without drug	0.22	-1.18
Dcaf12l2	high cell count without drug only	-0.45	2.36
Stra6	no change with or without drug	1.57	-0.84
Ccr8	no change with or without drug	-1.69	-1.18
Gjb4	no change with or without drug	-0.22	0.51
Evc	no change with or without drug	0.34	1.18
Pigyl	no change with or without drug	-0.9	0.84
Folr2	no change with or without drug	0.67	0
Macroh2a2	no change with or without drug	1.46	1.69
Slc35f6	no change with or without drug	-0.67	1.18
Rnf182	no change with or without drug	0	-0.51
Mrps11	no change with or without drug	0.56	-0.67
Or4f57	low cell count with doxorubicin only (active)	-2.14	-1.52
P2ry13	no change with or without drug	-0.22	0.34
Tmem132a	no change with or without drug	-1.35	-1.69

5 entries from above, sorted by “viability z-score without drug”, lowest first:
target gene	combined z-score class	viability z-score with doxorubicin	viability z-score without drug
Psmd11	low cell count with and without drug	-4.27	-4.55
Slc51b	no change with or without drug	-1.35	-0.51
Slc35f2	no change with or without drug	0.9	-0.51
Usp14	no change with or without drug	-0.22	0.34
Zfp51	no change with or without drug	0.22	0.84

The results go on.
target gene	combined z-score class	viability z-score with doxorubicin	viability z-score without drug
Slx9	no change with or without drug	-1.35	-0.17
Tlr12	no change with or without drug	0.34	-1.01
Ets1	no change with or without drug	0.45	-0.84
Alg9	no change with or without drug	0.9	0.51
Cd163	high cell count without drug only	1.46	2.87
Pex13	no change with or without drug	1.24	0.17
Cdkal1	no change with or without drug	0.34	0
Map1lc3b	no change with or without drug	-1.12	-0.67
Nfatc2	no change with or without drug	1.35	0.84
Ell3	low cell count with doxorubicin only (active)	-2.36	1.01
Phf19	no change with or without drug	-1.46	-0.51
Pdlim4	no change with or without drug	-1.8	-1.52
Stk38	no change with or without drug	-0.79	-1.69
Insyn1	no change with or without drug	0.9	1.35
Irs1	no change with or without drug	1.12	0
Rpl31	low cell count with and without drug	-5.85	-4.55
Pkd2l2	no change with or without drug	0.67	0
Mmp28	no change with or without drug	0.22	0.84
Zdhhc14	no change with or without drug	1.01	0
Slx1b	no change with or without drug	-0.22	1.01
Macir	no change with or without drug	-0.9	0.51
Rbm15b	no change with or without drug	0.9	1.18
Ctsr	no change with or without drug	1.12	1.52
Or5b21	no change with or without drug	-0.79	-0.34
Tbc1d1	no change with or without drug	-0.45	0.84
